Inconclusive results, whose numbers are uncertain, are shown with a selection of clear calls. For some assays here: Potencies of inconclusive entries are doubtful fits and often do not repeat. Active and inactive are the calls of the source. The call rests on the fitted dose curve; in most records, active means well fitted cell-killing curve with a large enough effect; inconclusive means small, poorly fitted or top-dose-only effect, or effect the other way; inactive means no such curve, though single readings can be large or run the other way.
test: Quantitative High-Throughput drug screen in 47 multiple myeloma cell lines against the NCATS MIPE library collection: KMS34_JCRB cell viability assay (AID 1918985); settings: KMS34 myeloma viability, CellTiter-Glo ATP luminescence, 48 h; viability, percent of control: at 45.8 µM (top of the series);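 further: 100% = DMSO-only wells and 0% = media-only wells; nearly all actives have a fitted effect of over 40% in size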
Summary of the method: (§1)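 Readout: median RLU from CellTiter-Glo after 5 min at room temperature. Preceding step was 48 h drug treatment of 500 cells/well at 37 °C, 5% CO2, with DMSO-only and media-only control wells.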

SMILES	viability, percent of control
CN[C@@H](C)C(=O)N[C@H]1CN(C(=O)CC(C)C)CC[C@H]2CC[C@@H](C(=O)NC(c3ccccc3)c3ccccc3)N2C1=O	inconclusive: 49.1% [cytotoxic]
CN(C)c1ccc(C2Nc3ccc4ccccc4c3C3=C2C(=O)CC(C)(C)C3)cc1Br (stereo unspecified)	inactive: 113%
OC[C@H]1O[C@@H](Oc2cc(O)cc(C=Cc3ccc(O)cc3)c2)[C@H](O)[C@@H](O)[C@H]1O	inactive: 103%
CN(C)CCOC(c1ccccc1)c1ccccc1	inactive: 113%
CN(CCOc1ccc(CC2SC(=O)NC2=O)cc1)c1ccccn1 (stereo unspecified)	inactive: 114%

test: Quantitative High-Throughput drug screen in 47 multiple myeloma cell lines against the NCATS MIPE library collection: OCIMY7_PLB cell viability assay (AID 1918987); settings: OCI-MY7 myeloma viability, CellTiter-Glo ATP, 48 h; viability (% of DMSO): at 45.8 µM (top of the series); further: potency means the concentration at half of the fitted maximal effect; nearly all actives have a fitted effect of over 65% in size
Summary of the method: as §1

SMILES	Potency
CC(C)NCC(O)COc1ccc(COCCOC(C)C)cc1 (stereo unspecified)	inconclusive: 3.72 µM [cytotoxic, partial curve, poor fit]
OCCN(CCO)c1nc(N2CCCCC2)c2nc(N(CCO)CCO)nc(N3CCCCC3)c2n1	inconclusive: 16.6 µM [cytotoxic, partial curve, poor fit]
CN1CCN(Cc2ccc(NC(=O)Nc3ccc(Oc4cc(NC(=O)C5CC5)ncn4)cc3)cc2C(F)(F)F)CC1	active: 0.526 µM
C=CCc1ccc(O)c(-c2ccc(O)c(CC=C)c2)c1	inconclusive: 26.4 µM [cytotoxic, partial curve, poor fit]
O=C(C1CC1)N1CC[C@@H](Cn2c(-c3ccc(-c4ccc5occc5c4)cc3)nc3cnccc32)C1	inconclusive: 20.9 µM [cytotoxic, partial curve, poor fit]
O=c1c(O)c(-c2cc(O)c(O)c(O)c2)oc2cc(O)cc(O)c12	inconclusive: 0.105 µM [cytotoxic, full curve, poor fit]

Source: PubChem BioAssay (NCATS)
